# At least one compound was matched to its structure with a doubt left. Marks after values point to notes of the source that are not given here.
# Test system: group O red blood cells (RBCs)
# Assay: Tube serology of group O RBCs transformed at 37° C. with synthetic glycolipids
# Assay type: cell-based, human
# Set-up: Bioclone anti-A, Tube: scale not given here
# Experimental: Washed packed group O red blood cells (RBCs) (3 parts by volume) and the synthetic glycolipid solution (1 part by volume, varying concentrations) were added to an eppendorf tube. The tube was incubated in a 37° C. waterbath for one hour, mixing every 15 minutes. […]
# Tube serology and Diamed gel-card results for RBCs transformed with the different synthetic molecule constructs are provided in Table 38. Results for the stability of the RBCs transformed with the different synthetic glycolipids at different concentrations are provided in Tables 39 to 44.
smiles,measurement,setting,value
CCCCCCCC/C=C\CCCCCCCC(=O)OC[C@H](COP(=O)(O)OCCNC(=O)CCCCC(=O)NCCCO[C@@H]1O[C@H](CO)[C@H](O)[C@H](O[C@H]2O[C@H](CO)[C@H](O)[C@H](O)[C@H]2NC(C)=O)[C@H]1O[C@@H]1O[C@@H](C)[C@@H](O)[C@@H](O)[C@@H]1O)OC(=O)CCCCCCC/C=C\CCCCCCCC [Atri-sp-Ad-DOPE (I)],"Agglutination, manual tube serology, Albaclone anti-A","0.025 mg/mL, Day 2, Alsevers",1+/w+
same,"Agglutination, manual tube serology, Bioclone anti-A","0.025 mg/mL, Day 2, Alsevers",1+
same,"Agglutination, manual tube serology, Albaclone anti-A","0.025 mg/mL, Day 2, Cellstab",1+
same,"Agglutination, manual tube serology, Bioclone anti-A","0.025 mg/mL, Day 2, Cellstab",2+
same,"Agglutination, manual tube serology, Bioclone anti-A","0.025 mg/mL, Day 8, Alsevers",2+
same,"Agglutination, manual tube serology, Bioclone anti-A","0.025 mg/mL, Day 8, Cellstab",1+
same,"Agglutination, manual tube serology, Bioclone anti-A","0.025 mg/mL, Day 15, Cellstab",1+
same,"Agglutination, manual tube serology, Albaclone anti-A","0.025 mg/mL, Day 22, Cellstab",1+
same,"Agglutination, manual tube serology, Bioclone anti-A","0.025 mg/mL, Day 22, Cellstab",1+
same,"Bioclone anti-A, Tube",0.04 mg/mL,1+
same,"Bioclone anti-A, Tube",0.05 mg/mL,2+
same,"Agglutination, manual tube serology, Albaclone anti-A","0.05 mg/mL, Day 2, Alsevers",1+
same,"Agglutination, manual tube serology, Bioclone anti-A","0.05 mg/mL, Day 2, Alsevers",2+/1+
same,"Agglutination, manual tube serology, Albaclone anti-A","0.05 mg/mL, Day 2, Cellstab",2+
same,"Agglutination, manual tube serology, Bioclone anti-A","0.05 mg/mL, Day 2, Cellstab",3+/2+
same,"Agglutination, manual tube serology, Albaclone anti-A","0.05 mg/mL, Day 8, Alsevers",1+
same,"Agglutination, manual tube serology, Bioclone anti-A","0.05 mg/mL, Day 8, Alsevers",2+
same,"Agglutination, manual tube serology, Albaclone anti-A","0.05 mg/mL, Day 8, Cellstab",1+/w+
same,"Agglutination, manual tube serology, Bioclone anti-A","0.05 mg/mL, Day 8, Cellstab",2+
same,"Agglutination, manual tube serology, Albaclone anti-A","0.05 mg/mL, Day 15, Alsevers",1+
same,"Agglutination, manual tube serology, Bioclone anti-A","0.05 mg/mL, Day 15, Alsevers",2+
same,"Agglutination, manual tube serology, Bioclone anti-A","0.05 mg/mL, Day 15, Cellstab",4+
same,"Agglutination, manual tube serology, Albaclone anti-A","0.05 mg/mL, Day 22, Alsevers",2+
same,"Agglutination, manual tube serology, Bioclone anti-A","0.05 mg/mL, Day 22, Alsevers",2+
same,"Agglutination, manual tube serology, Albaclone anti-A","0.05 mg/mL, Day 22, Cellstab",4+
same,"Agglutination, manual tube serology, Bioclone anti-A","0.05 mg/mL, Day 22, Cellstab",4+
same,"Agglutination, manual tube serology, Albaclone anti-A","0.05 mg/mL, Day 44, Cellstab",2+
same,"Agglutination, manual tube serology, Bioclone anti-A","0.05 mg/mL, Day 44, Cellstab",2+
same,"Agglutination, manual tube serology, Albaclone anti-A","0.1 mg/mL, Day 2, Alsevers",3+/2+
same,"Agglutination, manual tube serology, Bioclone anti-A","0.1 mg/mL, Day 2, Alsevers",2+
same,"Agglutination, manual tube serology, Albaclone anti-A","0.1 mg/mL, Day 2, Cellstab",3+/2+
same,"Agglutination, manual tube serology, Bioclone anti-A","0.1 mg/mL, Day 2, Cellstab",3+/2+
same,"Agglutination, manual tube serology, Albaclone anti-A","0.1 mg/mL, Day 8, Alsevers",2+
same,"Agglutination, manual tube serology, Bioclone anti-A","0.1 mg/mL, Day 8, Alsevers",3+/2+
same,"Agglutination, manual tube serology, Albaclone anti-A","0.1 mg/mL, Day 8, Cellstab",2+
same,"Agglutination, manual tube serology, Bioclone anti-A","0.1 mg/mL, Day 8, Cellstab",3+^o
same,"Agglutination, manual tube serology, Albaclone anti-A","0.1 mg/mL, Day 15, Alsevers",2+
same,"Agglutination, manual tube serology, Bioclone anti-A","0.1 mg/mL, Day 15, Alsevers",3+
same,"Agglutination, manual tube serology, Albaclone anti-A","0.1 mg/mL, Day 15, Cellstab",4+
same,"Agglutination, manual tube serology, Bioclone anti-A","0.1 mg/mL, Day 15, Cellstab",4+
same,"Agglutination, manual tube serology, Albaclone anti-A","0.1 mg/mL, Day 22, Alsevers",2+
same,"Agglutination, manual tube serology, Bioclone anti-A","0.1 mg/mL, Day 22, Alsevers",3+
same,"Agglutination, manual tube serology, Albaclone anti-A","0.1 mg/mL, Day 22, Cellstab",4+
same,"Agglutination, manual tube serology, Bioclone anti-A","0.1 mg/mL, Day 22, Cellstab",4+
same,"Agglutination, manual tube serology, Albaclone anti-A","0.1 mg/mL, Day 44, Cellstab",4+
same,"Agglutination, manual tube serology, Bioclone anti-A","0.1 mg/mL, Day 44, Cellstab",4+
same,"Agglutination, manual tube serology, Albaclone anti-A","0.25 mg/mL, Day 2, Alsevers",4+
same,"Agglutination, manual tube serology, Bioclone anti-A","0.25 mg/mL, Day 2, Alsevers",4+^o
same,"Agglutination, manual tube serology, Albaclone anti-A","0.25 mg/mL, Day 2, Cellstab",3+
same,"Agglutination, manual tube serology, Bioclone anti-A","0.25 mg/mL, Day 2, Cellstab",4+^o
same,"Agglutination, manual tube serology, Albaclone anti-A","0.25 mg/mL, Day 10, Alsevers",2+
same,"Agglutination, manual tube serology, Bioclone anti-A","0.25 mg/mL, Day 10, Alsevers",3+^
same,"Agglutination, manual tube serology, Albaclone anti-A","0.25 mg/mL, Day 10, Cellstab",2+
same,"Agglutination, manual tube serology, Bioclone anti-A","0.25 mg/mL, Day 10, Cellstab",4+^o
same,"Agglutination, manual tube serology, Albaclone anti-A","0.25 mg/mL, Day 17, Alsevers",4+
same,"Agglutination, manual tube serology, Bioclone anti-A","0.25 mg/mL, Day 17, Alsevers",4+^o
same,"Agglutination, manual tube serology, Albaclone anti-A","0.25 mg/mL, Day 17, Cellstab",4+
same,"Agglutination, manual tube serology, Bioclone anti-A","0.25 mg/mL, Day 17, Cellstab",4+^o
same,"Agglutination, manual tube serology, Albaclone anti-A","0.25 mg/mL, Day 24, Alsevers",4+
same,"Agglutination, manual tube serology, Bioclone anti-A","0.25 mg/mL, Day 24, Alsevers",4+^
same,"Agglutination, manual tube serology, Albaclone anti-A","0.25 mg/mL, Day 24, Cellstab",4+
same,"Agglutination, manual tube serology, Bioclone anti-A","0.25 mg/mL, Day 24, Cellstab",4+^
same,"Agglutination, manual tube serology, Albaclone anti-A","0.5 mg/mL, Day 2, Alsevers",4+
same,"Agglutination, manual tube serology, Bioclone anti-A","0.5 mg/mL, Day 2, Alsevers",4+^o
same,"Agglutination, manual tube serology, Albaclone anti-A","0.5 mg/mL, Day 2, Cellstab",4+
same,"Agglutination, manual tube serology, Bioclone anti-A","0.5 mg/mL, Day 2, Cellstab",4+^o
same,"Agglutination, manual tube serology, Albaclone anti-A","0.5 mg/mL, Day 10, Alsevers",2+
same,"Agglutination, manual tube serology, Bioclone anti-A","0.5 mg/mL, Day 10, Alsevers",4+^o
same,"Agglutination, manual tube serology, Albaclone anti-A","0.5 mg/mL, Day 10, Cellstab",3+^o
same,"Agglutination, manual tube serology, Bioclone anti-A","0.5 mg/mL, Day 10, Cellstab",4+^o
same,"Agglutination, manual tube serology, Albaclone anti-A","0.5 mg/mL, Day 17, Alsevers",4+
same,"Agglutination, manual tube serology, Bioclone anti-A","0.5 mg/mL, Day 17, Alsevers",4+^o
same,"Agglutination, manual tube serology, Albaclone anti-A","0.5 mg/mL, Day 17, Cellstab",4+
same,"Agglutination, manual tube serology, Bioclone anti-A","0.5 mg/mL, Day 17, Cellstab",4+^o
same,"Agglutination, manual tube serology, Albaclone anti-A","0.5 mg/mL, Day 24, Alsevers",4+
same,"Agglutination, manual tube serology, Bioclone anti-A","0.5 mg/mL, Day 24, Alsevers",4+^
same,"Agglutination, manual tube serology, Albaclone anti-A","0.5 mg/mL, Day 24, Cellstab",4+
same,"Agglutination, manual tube serology, Bioclone anti-A","0.5 mg/mL, Day 24, Cellstab",4+^
same,"Agglutination, manual tube serology, Albaclone anti-A","1 mg/mL, Day 2, Alsevers",4+
same,"Agglutination, manual tube serology, Bioclone anti-A","1 mg/mL, Day 2, Alsevers",4+^o
same,"Agglutination, manual tube serology, Albaclone anti-A","1 mg/mL, Day 2, Cellstab",4+
same,"Agglutination, manual tube serology, Bioclone anti-A","1 mg/mL, Day 2, Cellstab",4+^o
same,"Agglutination, manual tube serology, Albaclone anti-A","1 mg/mL, Day 10, Alsevers",3+
same,"Agglutination, manual tube serology, Bioclone anti-A","1 mg/mL, Day 10, Alsevers",4+^o
same,"Agglutination, manual tube serology, Albaclone anti-A","1 mg/mL, Day 10, Cellstab",4+^o
same,"Agglutination, manual tube serology, Bioclone anti-A","1 mg/mL, Day 10, Cellstab",4+^o
same,"Agglutination, manual tube serology, Albaclone anti-A","1 mg/mL, Day 17, Alsevers",4+
same,"Agglutination, manual tube serology, Bioclone anti-A","1 mg/mL, Day 17, Alsevers",4+^o
same,"Agglutination, manual tube serology, Albaclone anti-A","1 mg/mL, Day 17, Cellstab",4+
same,"Agglutination, manual tube serology, Bioclone anti-A","1 mg/mL, Day 17, Cellstab",4+^o
same,"Agglutination, manual tube serology, Albaclone anti-A","1 mg/mL, Day 24, Alsevers",4+
same,"Agglutination, manual tube serology, Bioclone anti-A","1 mg/mL, Day 24, Alsevers",4+^
same,"Agglutination, manual tube serology, Albaclone anti-A","1 mg/mL, Day 24, Cellstab",4+
same,"Agglutination, manual tube serology, Bioclone anti-A","1 mg/mL, Day 24, Cellstab",4+^o
